Results are given in words; binding and its absence hold for the method and conditions named. For some of these results: In cells and extracts the contact can be indirect. Some entries that bind do so weakly or less than the wild type.
Legend:
[1] = target: endogenous PRAK of Hela cells (human (endogenous in Hela)) (UniProt Q8IW41); test: co-IP; endogenous proteins, lysate of nonstimulated Hela cells; protein A/G beads coupled with anti-PRAK antibody or IgG, blotted with anti-DJ-1
[2] = target: Flag-tagged DJ-1 (from pcDNA3-Flag-DJ-1) (human) (UniProt Q99497); test: co-IP; HEK293 cells cotransfected with pcDNA3-HA-PRAK and pcDNA3-Flag-DJ-1; lysates precipitated with anti-Flag M2 beads, blotted with anti-HA
[3] = target: Myc-DBD-PRAK fusion protein (p38 regulated/activated kinase fused to the Gal4 DNA binding domain, from pGBKT7-PRAK) (human) (UniProt Q8IW41); test: two-hybrid; library screen, Matchmaker GAL4 Two-hybrid System 3; pGBKT7-PRAK in AH109 as bait, human heart cDNA library in Y187 as prey; SD/-Ade/-His/-Leu/-Trp/X-α-gal plates, 30°C, 4–6 days; β-galactosidase by colony-lift filter
[4] = target: Myc-DBD-PRAK fusion protein (p38 regulated/activated kinase fused to the Gal4 DNA binding domain, from pGBKT7-PRAK) (human) (UniProt Q8IW41); test: two-hybrid; mating of AH109 expressing AD-DJ-1 with Y187 expressing DBD-PRAK, 30°C, 24 hrs; SD/-Ade/-His/-Leu/-Trp/X-α-gal plates, β-galactosidase activity

By UniProt entry, the sequences of proteins in these tests, tags left out. Where a name states a change or a piece, a line headed by the entry shows the natural chain unless it says otherwise.
UniProt Q8IW41: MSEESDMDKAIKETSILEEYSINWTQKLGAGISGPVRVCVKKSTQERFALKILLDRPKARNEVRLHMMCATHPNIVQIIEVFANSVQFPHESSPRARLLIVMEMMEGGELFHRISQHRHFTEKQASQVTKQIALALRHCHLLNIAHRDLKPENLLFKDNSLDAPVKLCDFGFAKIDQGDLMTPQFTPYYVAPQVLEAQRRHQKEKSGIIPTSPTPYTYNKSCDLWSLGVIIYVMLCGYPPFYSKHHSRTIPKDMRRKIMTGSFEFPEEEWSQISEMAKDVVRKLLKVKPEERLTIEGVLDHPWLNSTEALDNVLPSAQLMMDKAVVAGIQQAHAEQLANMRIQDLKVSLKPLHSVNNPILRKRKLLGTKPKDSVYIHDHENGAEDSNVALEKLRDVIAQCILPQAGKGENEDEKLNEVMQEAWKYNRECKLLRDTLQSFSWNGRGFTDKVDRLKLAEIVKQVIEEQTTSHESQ
UniProt Q99497: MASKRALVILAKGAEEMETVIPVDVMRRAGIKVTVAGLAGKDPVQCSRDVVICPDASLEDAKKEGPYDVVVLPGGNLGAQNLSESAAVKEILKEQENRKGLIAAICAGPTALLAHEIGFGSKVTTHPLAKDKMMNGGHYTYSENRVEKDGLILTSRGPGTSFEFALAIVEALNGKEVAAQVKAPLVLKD

## endogenous DJ-1 of Hela cells (from UniProt Q99497 1-189)
[1]
  binding: binds

## HA-PRAK (from pcDNA3-HA-PRAK) (from UniProt Q8IW41-2 1-471) (enzyme)
[2]
  binding: binds

## clone 4 of the human heart cDNA library: DJ-1 (58-189 aa) (from UniProt Q99497 58-189) (domain or fragment)
[3]
  binding: binds

## AD-DJ-1 (activation domain-fused DJ-1, from pGADT7-DJ-1) (from UniProt Q99497 1-189)
[4]
  binding: binds

From PMC4212658
